Results are given in words; binding and its absence hold for the method and conditions named. Some results given as binding are weak or reduced against the parent protein; the word gives no strength. One block for each binder: values may come before it.
Legend:
PD1-His = biological target: T1, PD1-His (human, UniProt Q15116 25-167, limits assumed); assay: ELISA: PD1-His on the plate, graded antibody, HRP-labelled second antibody, OD450
T1 construct: also called hPD-1; not shown: His tag

By UniProt entry, the sequences of proteins in these tests, tags left out. Where a name states a change or a piece, a line headed by the entry shows the natural chain unless it says otherwise. Residues count along the entry.
UniProt Q15116: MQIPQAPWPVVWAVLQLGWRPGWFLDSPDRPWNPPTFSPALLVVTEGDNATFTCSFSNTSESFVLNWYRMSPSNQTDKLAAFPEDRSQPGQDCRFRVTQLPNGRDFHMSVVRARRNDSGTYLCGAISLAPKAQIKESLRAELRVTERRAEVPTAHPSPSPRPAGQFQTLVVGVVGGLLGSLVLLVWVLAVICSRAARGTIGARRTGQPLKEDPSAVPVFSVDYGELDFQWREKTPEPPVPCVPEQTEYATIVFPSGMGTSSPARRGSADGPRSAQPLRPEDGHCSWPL
PD1 on PD1-27 cells (PD1 over-expressed CHO-K1 stable transfected cells): residues 25-288 of Q15116

[1] = biological target: recombinant human PD-1 protein (human) (UniProt Q15116); assay: ELISA, protein coated at 0.5 µg/mL, antibody 0.5 µg/mL, goat anti-human FAB-HRP
[2] = biological target: recombinant M.fascicularis PD-1 (M.fascicularis) (UniProt B0LAJ3); assay: as above
PD1-Fc-His [3] = biological target: T2, PD1-Fc-His (UniProt Q15116 25-167, limits assumed); assay: Inhibition ELISA: graded antibody pre-incubated with PD1-Fc-His, added to a plate laid with 'PD1-Fc' (so in the source), anti-His-HRP, OD450
T2 construct: not shown: Fc; His tag
Protocol: (§1) Incubate the gradient diluted antibody and a certain concentration of PD1-Fc-His in advance, then add the mixture to the plate laid with PD1-Fc. Add anti-His-HRP to the plate after incubating and washing. Then perform coloration. Draw up the reaction curve by fitting of readings (see FIG. 7 for results) to calculate the IC50 value.

[4] = biological target: PD1 on PD1-27 cells (PD1 over-expressed CHO-K1 stable transfected cells) (UniProt Q15116); assay: Cell binding: PD1-27 (PD1 over-expressed CHO-K1) cells on the plate, graded antibody, EU-labelled second antibody, fluorescence
[5] = biological target: recombinant human PD-1 protein (human) (UniProt Q15116); assay: ELISA: protein coated at 0.5 ug/mL, antibody at 0.5 ug/mL, goat anti-human FAB-HRP, OD450
[6] = biological target: recombinant M.fascicularis PD-1 (M.fascicularis) (UniProt B0LAJ3); assay: as above
PD1-Fc-His [7] = biological target: T2, PD1-Fc-His; assay: Inhibition ELISA: graded antibody pre-incubated with PD1-Fc-His, added to a plate coated with 'PD1-Fc' (so in the source), anti-His-HRP, OD450
Protocol: as §1, with “enveloped” for “laid”, “2” for “7”

[8] = biological target: PD1 on PD1-27 cells (PD1 over-expressed CHO-K1 stable transfected cells) (UniProt Q15116); assay: Cell inhibition: PD1-27 (PD1 over-expressed CHO-K1) cells, graded antibody together with 'PD1-Fc' (so in the source), anti-Human-EU, fluorescence
[9] = biological target: PD1 on PD1-27 cells (PD1 over-expressed CHO-K1 stable transfected cells) (UniProt Q15116); assay: Cell binding: PD1-27 (PD1 over-expressed CHO-K1) cells on the plate, graded antibody, anti-mouse-EU, fluorescence

binding (PD1-His): binds
binding [1]: binds
binding [2]: binds
binding (PD1-Fc-His [3]): binds
binding [4]: binds
binding [5]: binds
binding [6]: binds
B1: humanized antibody anti-PD-1 (antibody, V domains shown)
VH: EVQLVESGGGLVKPGGSLRLSCAASGFTFSSYTMSWVRQAPGKGLEWVATISNGGSFTYYPDSMKGRFTISRDNSKNTLYLQMSSLRAEDTAVYYCARDSDYYGIFDYWGQGTTVTVSS
VL: DIVMTQSPLSLPVTPGEPASISCRSSKSLLYKDGKTYLNWYLQKPGQSPQLLIYLMSTRASGVPDRFSGSGSGTDFTLKISRVEAEDVGVYYCQQLVEDPFTFGQGTKLEIKR
notes: Human constant regions; also called humanized PD-1 antibody; hup01 (plasmids P3.1GS-hup01-HC / P3.1GS-hup01-LC)

binding (PD1-Fc-His [7]): binds
binding [8]: binds
binding [9]: binds
B2: mouse anti-PD-1 (antibody, V domains shown)
VH: DVKLVESGGGLVKPGGSLKLSCAASGFTFSSYTMSWVRQTPEKRLEWVATISNGGSFTYYPDSMKGRFTISRDNAKNTLYLQMSSLKSEDTAMYYCTRDSDYYGIFDYWGQGTTLTVSS
VL: DIVITQDELSNPVTSGESVSISCRSSKSLLYKDGKTYLNWFLQRPGQSPQLLIYLMSTRASGVSDRFSGSGSGTDFTLEISRVKAEDVGVYYCQQLVEDPFTFGSGTKLEIKR
notes: also called mouse anti-PD-1 monoclonal antibody; mouse PD-1 antibody

Source: patent publication US20190071501A1 (REYOUNG SUZHOU BIOLOGY SCIENCE AND TECHNOLOGY, published 2019)
